Results on one molecule are retold here after PMC9917443.

Sequences of proteins named here, by UniProt entry; tags and fusion partners are left off. A change or cut given only in a name is not applied to a line headed by its entry.
UniProt Q9Z0U4: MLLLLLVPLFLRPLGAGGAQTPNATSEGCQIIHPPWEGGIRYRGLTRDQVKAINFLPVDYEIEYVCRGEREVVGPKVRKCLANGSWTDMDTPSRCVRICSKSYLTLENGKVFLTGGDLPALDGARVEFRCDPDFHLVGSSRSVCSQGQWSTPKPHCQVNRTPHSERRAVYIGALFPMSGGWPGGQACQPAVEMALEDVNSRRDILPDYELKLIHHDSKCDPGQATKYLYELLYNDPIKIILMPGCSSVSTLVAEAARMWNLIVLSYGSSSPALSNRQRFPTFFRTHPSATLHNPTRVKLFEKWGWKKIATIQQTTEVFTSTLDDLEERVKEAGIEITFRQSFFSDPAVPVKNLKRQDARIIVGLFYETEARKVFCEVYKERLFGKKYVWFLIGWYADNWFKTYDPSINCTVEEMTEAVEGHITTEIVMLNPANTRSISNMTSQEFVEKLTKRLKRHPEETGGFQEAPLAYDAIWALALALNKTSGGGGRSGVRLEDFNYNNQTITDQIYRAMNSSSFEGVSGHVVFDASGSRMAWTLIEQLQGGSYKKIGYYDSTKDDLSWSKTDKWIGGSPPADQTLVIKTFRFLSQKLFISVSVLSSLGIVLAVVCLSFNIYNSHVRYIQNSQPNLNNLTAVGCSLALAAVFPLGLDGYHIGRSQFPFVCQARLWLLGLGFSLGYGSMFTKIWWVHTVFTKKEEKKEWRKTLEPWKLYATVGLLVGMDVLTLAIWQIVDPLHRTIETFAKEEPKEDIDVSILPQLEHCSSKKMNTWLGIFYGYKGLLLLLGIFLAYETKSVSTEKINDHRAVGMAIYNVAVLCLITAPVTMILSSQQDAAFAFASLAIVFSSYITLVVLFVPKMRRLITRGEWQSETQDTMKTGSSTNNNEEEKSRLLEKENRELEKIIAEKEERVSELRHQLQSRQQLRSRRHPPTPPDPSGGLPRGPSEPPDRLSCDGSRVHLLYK

For this experiment, the target named is GB1a/2 receptors expressed in HEK293T cells (UniProt Q9Z0U4). The experiment in a line: fluorescence of TMR-labelled peptide bound to cells (microplate reader); HEK293T cells expressing Flag-GB1a and Flag-GB2 in 96-well plates; 1 μM APP17-TMR with vehicle, 10 μM APP17 or 10 μM sc-APP17; 1 hr at room temperature; background of sc-APP17-TMR at cells transfected with empty vector subtracted; only the binder purified.

No constants are given. Whether binding was seen depends on the method and setting. Some binding calls cover weakened binding; strength is not graded here.

For the molecule DDSDVWWGGADTDYADG (N-terminal acetyl (Ac-); C-terminal amide (-NH2)) [APP17], the binding entry was “binds”.
